The target of assay [1] is c-Myc 1-150 aa segment (human). Briefly: co-IP; lysates incubated with a target-specific primary antibody 2-4 h at 4 °C, then Protein A/G agarose or magnetic beads 1-2 h; washed with lysis buffer; SDS-PAGE and Western blot. Background: A western blot detects proteins with antibodies after separation by electrophoresis.
The target in assay [2] is c-Myc 1-50 aa segment (human). The description is as above.

Our source for the binding values is PMC12586529.

No constants are given. Whether binding was seen depends on the method and setting. In cells and extracts the contact can be indirect. Binding can be weak; no strength is given.

B1: Protein kinase C iota (Prkci) (enzyme, UniProt P41743 1-596)
chain: MPTQRDSSTMSHTVAGGGSGDHSHQVRVKAYYRGDIMITHFEPSISFEGLCNEVRDMCSFDNEQLFTMKWIDEEGDPCTVSSQLELEEAFRLYELNKDSELLIHVFPCVPERPGMPCPGEDKSIYRRGARRWRKLYCANGHTFQAKRFNRRAHCAICTDRIWGLGRQGYKCINCKLLVHKKCHKLVTIECGRHSLPQEPVMPMDQSSMHSDHAQTVIPYNPSSHESLDQVGEEKEAMNTRESGKASSSLGLQDFDLLRVIGRGSYAKVLLVRLKKTDRIYAMKVVKKELVNDDEDIDWVQTEKHVFEQASNHPFLVGLHSCFQTESRLFFVIEYVNGGDLMFHMQRQRKLPEEHARFYSAEISLALNYLHERGIIYRDLKLDNVLLDSEGHIKLTDYGMCKEGLRPGDTTSTFCGTPNYIAPEILRGEDYGFSVDWWALGVLMFEMMAGRSPFDIVGSSDNPDQNTEDYLFQVILEKQIRIPRSLSVKAASVLKSFLNKDPKERLGCHPQTGFADIQGHPFFRNVDWDMMEQKQVVPPFKPNISGEFGLDNFDSQFTNEPVQLTPDDDDIVRKIDQSEFEGFEYINPLLMSAEECV
For B1, the binding entry in assay [1] and in assay [2] was “binds” each time.
